Results on one molecule are retold here after patent US20100075908A1 (published 2010).

This experiment deals with purified GPIb (glycoprotein Ib). In words: array of overlapping 10-mer vWf peptides on nitrocellulose probed with 1 mg/mL purified GPIb.

Results are given in words; binding and its absence hold for the method and conditions named. Binding calls can cover weak binding; strength is not graded here.

For SHAYIGLKDR [SHAYIGLKDR (SEQ ID NO:8)], the binding entry is “binds”.
